# The supplement of paper PMC10338343
# ± gives the standard deviation. Only a part is listed here, and it is no random draw. The uncertainty is large for many entries.
# Test system: EfPiwi piRISC loaded with piRNA #1 (26 nt)
# Assay: pre-steady-state target cleavage rate (min^-1); guide: piRNA #1 5'p-UGAGGUAGUAGGUUGUAUAGUAUCCA; MIWI and MILI are mouse PIWI proteins and EfPiwi is from a freshwater sponge; tags in brackets are library labels; higher = faster piRNA-guided slicing of the target
# Settings: auxiliary factor: 500 nM Ephydatia muelleri Gtsf1
# Method in brief: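 A burst-and-steady-state fit was used to obtain the pre-steady-state cleavage rate. The input data were sequencing reads of uncleaved targets, normalised to depth and to weakly complementary targets, from a […] transcribed, DNA-blocked target RNA library mixed with 1 nM active affinity-purified piRISC holding one synthetic guide, with or without 500 nM GTSF1 partner protein, in HEPES–potassium acetate buffer at 33 °C for 0–8 or 0–960 min. Three trials were pooled and k3 was capped at 0.0001 min^-1.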
row,Sequence,pre-steady-state target cleavage rate
1,GGAGACCUUACUAUAGUACCUACUACCUCA,0.00174 ± 0.0049
2,GGAGACCAUACAAUACAACCUAGUACCUCA,0.000855 ± 0.0032
3,GGAGACCUAACUAUACCACCUACUACCUCA,0.0066 ± 0.0031
4,GGAGACGAUAGUAUACAACCUACUACCUCA,0.00758 ± 0.0036
5,GGAGACCUAUGAUAUGUUGGUUCUACCUCA,0.000145 ± 0.014
6,GGAGACCUAUCUAUACAACCUACUACCAUCA,0.00291 ± 0.0045
7,GGAGACCUAUGAUAUGAAACUACUACCUCA,0.000781 ± 0.0072
8,GGAGACCUAUCUAUACAAGCUACAACCUCA,0.00113 ± 0.0047
9,GGAGACCUUACUAAACAAGCUACUACCUCA,0.000497 ± 0.0086
10,GGAGACCUAACUAUUCAACCUACUAGCUCA,0.00111 ± 0.0062
11,GGAGAGCAUACUAUACAACCUACUAGCUCA,0.00355 ± 0.0022
12,GGAGAGGAUACAAUACAACCUACUAGCUCA,0.00253 ± 0.0018
13,GGAGACCUAUCUUUACAACCUACAACCUCA,0.00153 ± 0.0049
14,GGAGUGGAUACUAAACAACCUACUACCACA,0.003 ± 0.0021
15,GGAGACCAUACUAUACAGCCUACUACCUCA,0.16 ± 0.053
16,GGAGACCAUAGCUAUACAACCUACUACCUCA,0.0108 ± 0.0051
17,GGAGACCUAACUAAACAACCUACUACCACA,0.000381 ± 0.024
18,GGAGACCUAACUAUAGAACCUACUACGUCA,0.00104 ± 0.0037
19,GGAGAGGAUACUAUACAACCUACUUCCUCA,0.00514 ± 0.0026
20,GGAGACCUAUCUAUACAACCUACUGACCUCA,0.00107 ± 0.0085

row,Sequence,pre-steady-state target cleavage rate
1,GGAGACCAUACUAUAGUACCUACUACCUCA,0.00189 ± 0.0053
2,GGAGAGGAUACUAUACAAGCUACUACCUGA,0.00442 ± 0.0019
3,GGAGACCAUACUUUACAACCUACUACGUCA,0.00268 ± 0.0031
4,GGAGACGAUAGUAUACAACCUACUACCACA,0.00203 ± 0.0032
5,GGAGACCUAUGAUAUGUACCUUCUACCUGA,< 0.0001
6,GGAGUCGAUACUUUACAACCUACUACCUCA,0.00331 ± 0.0033
7,GGAGACCUAUGAUAUGUUGCAACUACCUCA,0.000472 ± 0.0077
8,GGAGACGAUACUUUACUACCUACUACCUCA,0.00186 ± 0.0035
9,GGAGACCAUACUUAUCAACCUACUACCUCA,0.00305 ± 0.0037
10,GGAGACGAUACUUUAGAACCUACUACCUCA,0.00161 ± 0.0029
11,GGAGACCUAUCUAUACAACCUAUCUACCUCA,0.000956 ± 0.0066
12,GGAGACCUAUGAUAUGUUGGUAGAUCCUCA,0.000338 ± 0.012
13,GGAGACCUAACUAUGCAACCUACUACCUCA,0.00447 ± 0.0039
14,GGAGACCUAUCUAUACAACCUAUUACCUCA,0.00466 ± 0.0039
15,GGAGACGAUACUAAAGAACCUACUACCUCA,0.00268 ± 0.004
16,GGAGACCUUACUAUACACCCUACUACCUCA,0.00862 ± 0.0036
17,GGAGACCUAUCUAUACAACCUACUUACCUCA,0.00178 ± 0.0056
18,GGAGACGAUACUAUACAACCUACUUACCUCA,0.0069 ± 0.0023
19,GGAGACCAUACUAUACAUCCUUCUACCUCA,0.00223 ± 0.003
20,GGAGAGGAUACUAUAGAAGCUACUACCUCA,0.00238 ± 0.0021

# 2 entries drawn at random from the list so far, as already listed:
row,Sequence,pre-steady-state target cleavage rate
2,GGAGAGGAUACUAUACAAGCUACUACCUGA,0.00442 ± 0.0019
3,GGAGACCAUACUUUACAACCUACUACGUCA,0.00268 ± 0.0031
